For one molecule, binding results are on record in PMC11265163.

By UniProt entry, the sequences of proteins in these tests, tags left out.
UniProt Q9UKK3: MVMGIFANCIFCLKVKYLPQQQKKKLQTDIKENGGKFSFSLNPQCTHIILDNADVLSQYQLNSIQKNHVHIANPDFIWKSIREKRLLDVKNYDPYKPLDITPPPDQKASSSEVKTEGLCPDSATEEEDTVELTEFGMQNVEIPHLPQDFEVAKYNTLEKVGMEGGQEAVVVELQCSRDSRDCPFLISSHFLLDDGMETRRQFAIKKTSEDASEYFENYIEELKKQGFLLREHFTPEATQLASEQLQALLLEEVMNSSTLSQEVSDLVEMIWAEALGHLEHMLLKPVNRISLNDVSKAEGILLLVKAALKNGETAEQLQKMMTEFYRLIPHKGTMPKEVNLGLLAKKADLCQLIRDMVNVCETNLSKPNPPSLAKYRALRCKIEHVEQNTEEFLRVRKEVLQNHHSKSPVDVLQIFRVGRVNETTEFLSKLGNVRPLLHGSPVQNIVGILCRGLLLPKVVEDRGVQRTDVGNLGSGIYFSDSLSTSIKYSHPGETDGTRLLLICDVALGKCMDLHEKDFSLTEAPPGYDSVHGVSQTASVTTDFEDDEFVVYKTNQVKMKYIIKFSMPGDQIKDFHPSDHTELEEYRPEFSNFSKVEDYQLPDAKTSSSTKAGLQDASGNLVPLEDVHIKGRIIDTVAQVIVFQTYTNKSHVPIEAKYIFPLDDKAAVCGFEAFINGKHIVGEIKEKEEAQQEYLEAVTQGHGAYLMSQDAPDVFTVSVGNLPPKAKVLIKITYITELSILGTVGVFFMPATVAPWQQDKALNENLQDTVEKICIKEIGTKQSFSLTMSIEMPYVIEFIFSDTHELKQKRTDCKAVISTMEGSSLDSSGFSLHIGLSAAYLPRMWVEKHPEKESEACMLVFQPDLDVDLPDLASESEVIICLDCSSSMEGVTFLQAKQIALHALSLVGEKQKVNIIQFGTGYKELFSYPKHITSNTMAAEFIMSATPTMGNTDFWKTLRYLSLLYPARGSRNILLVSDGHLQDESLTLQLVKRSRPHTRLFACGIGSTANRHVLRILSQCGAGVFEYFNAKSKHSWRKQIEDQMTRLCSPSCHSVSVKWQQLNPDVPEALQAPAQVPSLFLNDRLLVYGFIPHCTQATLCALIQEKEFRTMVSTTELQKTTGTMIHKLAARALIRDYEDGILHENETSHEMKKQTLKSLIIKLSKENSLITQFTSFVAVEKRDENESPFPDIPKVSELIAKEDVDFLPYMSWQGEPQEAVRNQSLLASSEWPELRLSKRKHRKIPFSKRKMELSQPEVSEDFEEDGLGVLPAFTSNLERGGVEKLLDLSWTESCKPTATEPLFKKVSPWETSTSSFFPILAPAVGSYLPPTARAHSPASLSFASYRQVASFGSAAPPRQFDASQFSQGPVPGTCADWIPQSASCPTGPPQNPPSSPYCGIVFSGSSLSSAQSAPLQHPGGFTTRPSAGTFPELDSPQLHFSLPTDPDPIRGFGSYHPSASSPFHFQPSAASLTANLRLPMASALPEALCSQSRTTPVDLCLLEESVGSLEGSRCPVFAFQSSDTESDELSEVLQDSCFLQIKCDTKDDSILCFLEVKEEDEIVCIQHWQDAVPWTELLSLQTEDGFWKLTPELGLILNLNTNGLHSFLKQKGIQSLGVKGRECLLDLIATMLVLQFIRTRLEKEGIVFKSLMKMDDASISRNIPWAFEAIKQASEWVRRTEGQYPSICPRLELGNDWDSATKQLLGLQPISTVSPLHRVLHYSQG

No constants are given. Whether binding was seen depends on the method and setting. Binding seen in cells or lysates may run through a third protein. A yes stands for co-enrichment or nearness to the bait. Other partners may have been found.

In this assay the target is PARP4 (human (endogenous in iSAEC-K, A549 and patient-derived lung cell lines)) (UniProt Q9UKK3). The assay is described as follows: affinity purification with mass spectrometry; immunoprecipitation of endogenous PARP4 from SILAC-labelled extracts of iSAEC-K shControl cells, shPARP4 #1 cells as negative control; forward and reverse experiments; quantitative mass spectrometry.

B1: heterogeneous ribonucleoprotein M (hnRNPM) (protein, UniProt P52272 1-730)
chain: MAAGVEAAAEVAATEIKMEEESGAPGVPSGNGAPGPKGEGERPAQNEKRKEKNIKRGGNRFEPYANPTKRYRAFITNIPFDVKWQSLKDLVKEKVGEVTYVELLMDAEGKSRGCAVVEFKMEESMKKAAEVLNKHSLSGRPLKVKEDPDGEHARRAMQKVMATTGGMGMGPGGPGMITIPPSILNNPNIPNEIIHALQAGRLGSTVFVANLDYKVGWKKLKEVFSMAGVVVRADILEDKDGKSRGIGTVTFEQSIEAVQAISMFNGQLLFDRPMHVKMDERALPKGDFFPPERPQQLPHGLGGIGMGLGPGGQPIDANHLNKGIGMGNIGPAGMGMEGIGFGINKMGGMEGPFGGGMENMGRFGSGMNMGRINEILSNALKRGEIIAKQGGGGGGGSVPGIERMGPGIDRLGGAGMERMGAGLGHGMDRVGSEIERMGLVMDRMGSVERMGSGIERMGPLGLDHMASSIERMGQTMERIGSGVERMGAGMGFGLERMAAPIDRVGQTIERMGSGVERMGPAIERMGLSMERMVPAGMGAGLERMGPVMDRMATGLERMGANNLERMGLERMGANSLERMGLERMGANSLERMGPAMGPALGAGIERMGLAMGGGGGASFDRAIEMERGNFGGSFAGSFGGAGGHAPGVARKACQIFVRNLPFDFTWKMLKDKFNECGHVLYADIKMENGKSKGCGVVKFESPEVAERACRMMNGMKLSGREIDVRIDRNA
B1: the binding result is “binds”.
